# Results as given in patent US20160340704A1, “METHOD OF MAKING A BENZYLISOQUINOLINE ALKALOID (BIA) METABOLITE, ENZYMES THEREFORE” (VALORBEC SOCIÉTÉ EN COMMANDITE, priority 2014, published 2016).
# Some of these results come from one statement about several compounds together.
# B1: EX99: CYP719 from Stylophorum diphyllum, SEQ ID NO: 378 (protein, listed as Stylophorum diphyllum)
# chain: MEESFWLVTATVVAVFVVAKLLFRKSSSISTMEWPAGPKTLPIIGNLHQLGGAAFHVVLANLAKVYGSVMTIWVGAWRPMIVISDIDKAWEVLVNKSSDYSARSLPEITRIISANWKNIMTSDSGPFWQNLRKGLQGGALSPHNVISQYQLQERDMQNLIKTIRVEASTNNGRIKPLDHLKQETVRLLSRLIFGQDFKDEKLVVGMHHALDDLVRISGYASLADAFKFAENLPSHKKSIREVHELKKRVENLVRPHIVSNPPTNTYLNFLLSQNFSEDLIISAILEVYDLGVDSTASTTVWALTFLVREQKVQEKLYQEIKNLTGGRSTVKVEEVSKMPYLQAVMKETMRTKPIAPMAIPHTAARETSLMGKKVDKGTVVMVNLYAIHHNPNIFPEPYKFMPERFLQGEEQNGGNIKEMEQSLLPFSAGMRICAGMELGKLQLGFALASLVNAFKWECAVDGKLPDMSEDHCFILLMKNPLEAKITLRTH
# B2: EX41: CYP719 from Argemone mexicana, B1NF20.1, SEQ ID NO: 320 (protein, listed as Argemone mexicana)
# chain: MDETIWLIISTVIIVLGIAKFLLGKSSSSSLSTMEWPVGPKKLPIIGNLHQLGGDVFHVVLANLAKVYGSVFTIWVGSWRPMIIVSDIDKAWEVLVNKSSDYSARDMPDITKIISANWKNISCSDSGPFWHNLRKGLQGVALTPLNVASQYHLQERDMKNLINSMYKDASRKNGILKPLDYLKEETVRLLSRLIFGQDFQDEKLVVGMHHALDDLVRISGYASLADAFKFCENLPSHKKSIREVHEVKKRVENLIRPHIVSNPPTNTYLYFLKTQDFNEDIIISAILEVYDLGVDSTASTTVWALTFLVREQEIQEKLYREIVNVTGGKRSVKVEDVNKMPYLQAVMKETMRMKPIAPMAIPHKTSKDTSLMGKKINKGSVIMVNLYAIHHNPKVFPEPYKFMPERFLKDVNSDESLGNIKTMESSLLAFSAGMRICAGMELGKLQLAFGLASLVHEFKWSCSVDGKLPDLSEDHCFILLMKNPLEAKITCRIH
# B3: EX45: CYP719 from Corydalis cheilanthifolia, SEQ ID NO: 324 (protein, listed as Corydalis cheilanthifolia)
# chain: MEESFWIVSATIVVVFVIATMFRKSSSISSKTEWPAGPKKLPVIGNLHQLGGDVLHVVLANLAKVYGTVMTVWVGSWKPMIVISDIDRAWEVLVNKSNDYSGRDLPEITKIISANWKNIMTADAGPYWTSLRKGLTGHTLAPTNVASQSHLQEKDMNNLINRMKNQAASNNGIIKPLDHLKEETVRLLSRLIFGQHFEDEHFVEGIHQALDDLVRISGYASLADAFKFCENLPSHKKSISGVHEILSRVRNLVRPYIVPNPPTNTYLHFLQSQKFTEEVIIACILEVYDLGVDSTAATTVWALTFLVREPEVQEKLYREIQTVIGDRGTVKVEDISKMTYLQAVMKETMRMKPIAPMAIPHKAVRETTLMGNKIDKNTVVMVNLYAIHHNPKVFPEPYKFRPERFLAGGDGKFGNLKAMEQSLLPFSAGMRICAGMELGKLQYGFALASLVNAFNWTCTADGKLPDMSEDHCFILLMKNPLVARIIPRVN
# B4: EX59: CYP719 from Eschscholzia californica, B5UAQ8.1, SEQ ID NO: 338 (protein, listed as Eschscholzia californica)
# chain: MEESLWVVTATVVVVFAIAKLLKKSSSISTMEWPKGPKKLPIIGNLHQLGGEAFHVVLANLAKIHGTVMTIWVGAWRPMIVISDIDKAWEVLVNKSSDYAGRDFPEITKIISANWKNISCSDSGPFWQNLRKGLQGGALAPLNVISQYQLQERDMKNLITSMQEKASKNNGILKPLDYLKEETIRLLSRLIFGQSFNDENFVKGVHLALDDLVRISGYASLADAFKFCENLPSHKKSIREVHEVNERVVNLVKPYLVKNPPTNTYLYFLNSQKFSDEVIISAVLEVYDLGVDSTASTAVWALTFLVREPRVQEKLYKEIIDLTGGERSVKVEDVSKLPYLQAVMKETMRMKPIAPMAIPHKTSRDTSLMGKKVNKGTSIMVNLYAIHHNPKVFPEPYKFIPERFLQGQESKYGDIKEMEQSLLPFSAGMRICAGMELGKLQYGFSLASLVEAFKWTCAVDGKLPDLSEDHCFILLMKNPLEARITPRTQL
# B5: EX65: CYP719 from Glaucium flavum, SEQ ID NO: 344 (protein, listed as Glaucium flavum)
# chain: MGRFLAPDIEMEESFWLVTATVIVVFAVAKFFTRSSSISKMEWPAGPKKLPIIGNLHQLGGNVFHVVLANLAKVHGSVMTIWVGSWRPMIVISDIEKAWEMLVTKSSDYSGRSFPEITKIISANWKNISCSDSGPFWTNLRKGLQGGALAPLNVISQYHLQEKDMENLVKSMRVEASKNNGNIKPLDHLKQETVRLLSRLIFGQDFHDEKLVVGMHHALDDLVRISGYASLADAFKIAENLPSHKKSIREVHEVNERVKKLVRPHIVSNPPTNTYLYFLQSQKFSEDVIISAILEVYDLGVDSTASTTVWALTFLVREQEIQEKLYQEIKSVSGGRSTVKVEEVSKMPYLQAVMKESMRMKPIAPMAIPHKAQRETTLMGKKVDKDTVLMVNLYAIHHNPNVFPEPFKFMPERFLQGEDHHNGGNIKAMEQSLLPFSAGMRICAGMELGKLQLAYGLASLVNAFKWDCAVDGKLPDMSEDHCFILLMKNPLEARITPRTH
# B6: EX74: CYP719 from Nandina domestica, SEQ ID NO: 353 (protein, listed as Nandina domestica)
# chain: MEESFWIVSATIVVVFVIATMFRKSSSISSKTEWPAGPKKLPVIGNLHQLGGDVLHVVLANLAKVYGTVMTVWVGSWKPMIVISDIDRAWEVLVNKSNDYSGRDLPEITKIISANWKNIMTADAGPYWTSLRKGLTGHTLAPTNVASQSHLQEKDMNNLINRMKNQAASNNGIIKPLDHLKEETVRLLSRLIFGQHFEDEHFVEGIHQALDDLVRISGYASLADAFKFCENLPSHKKSISGVHEILSRVRNLVRPYIVPNPPTNTYLHFLQSQKFTEEVIIACILEVYDLGVDSTAATTVWALTFLVREPEVQEKLYREIQTVIGDRGTVKVEDISKMTYLQAVMKETMRMKPIAPMAIPHKAVRETTLMGNKIDKNTVVMVNLYAIHHNPKVFPEPYKFRPERFLAGGDGKFGNLKAMEQSLLPFSAGMRTCAGMELGKLQFGFSLANLVNAFQWDCAKKGMFPDMSDLLGFVLLMKTPLQAKIVPRGSPSINGY
# B7: EX84: Papaver somniferum cheilanthifoline synthase, ADB89213.1, SEQ ID NO: 363 (protein, listed as Papaver somniferum)
# chain: MEVTFWLITCGVVVAFALAKLLFGKKSSMSTMEWPSGPKTLPIIGNLHQLGGEAFHVCLANLAKVYGGVFTIWVGSWRPFIVISDVDKAWEVLVNKSSDYSARDMPDITKIISANWKNISHGDSGPFWHNLRKGLQGVALTPFNVASQYHLQERDMQNLIKSMKKKASQKNGILKPLDYVKEETVRLLSRLIFSQEFVDEDFVVGMHQALDELVSISGYASLADAFKFCENLPSHKKTIRAVHAIKIRFDNLIRPHIVSNPPTNTYLHFLLSQDFSEDVIISAILEVYDLGVDSTASTTVWALTFLVREQKIQEKLYREINNVTGGKRPVKVEDLNKLPYLQAVMKETMRMKPIAPMAIPHKASKDTSLMGKKINKGTVVMVNLYAIHHNPAVFPEPYKFMPERFLKDANSDGSLGDIKKMESSLLAFSAGMRICAGMELGKLQLAFGLASLVNEFKWDCVAEGKLPDLSEEHCFILLMKNPLEAKITPRIH
# B8: EX95: CYP719 from Sanguinaria canadensis, SEQ ID NO: 374 (protein, listed as Sanguinaria canadensis)
# chain: MEESFWLVTVSVIVLFAVAKFFRKSSSIPKMEWPAGPKKLPIIGNLHQLGGDVFHVVLANLAKVYGSVMTIWVGSWRPMIIVSDIDKAWEVLVSKSSDYSARDMPDITKIISANWKNISCSDSGPFWHNLRKGLQGGALAPLNVISQYHLQERDMQNLINSMQQEASKNNGILKPLDHLKQETVRLLSRLIFGQDFHDEKLVVGMHHALDDLVRISGYASLADAFKFAENLPSHKKSIREVHEVKERVENLVRPHIIPNPPTNTYLHFLQSQGFSEDIVISGILEVYDLGVDSTASTTVWALTFLVREQKIQEKLFEEIKKVTGGRSSVRVEEVSKMAYLQAVMKETMRMKPIAPMAIPHKTSKETSLMGRKVDKGSVIMVNLYAIHHNPEVYPEPYKFKPERFLQGSENIKAMEQSLLPFSAGMRICAGMELGKLQLAFGLASLVNAFKWDCAVDGELPDMSEDHCFILLMKNPLQARITPRTH
# B9: EX42: CYP719 from Argemone mexicana, B1NF19.1, SEQ ID NO: 321 (protein, listed as Argemone mexicana)
# chain: MEEKIMTNNSPWILTSSTTTTTTILLSLLFTIFIILRRNKSSSSKMVWPTGPKTLPIIGNMNILGGTALHVVLHNLAKTYGNVMTIWIGSWRPVIVVSDIDRAWEVLVNKSSDYSARDMPEITKLATADWKTISSSDSGPFWTNLRKGLQNVALSPQNLSSQSKFQERDIIKTIQNLKEEAKMNNGIVKPLDHLKKAMVRLISRLIYGQDFDNDEYVEEMHHTIEELIRVSGYARLAEAFYYAKYLPSHKKAVREVLQANQRVQNLVRPLLSLNSPTNTYLHFLRSQNYEDEVIIFAIFEAYLLGVDSTSSTTAWALAYLIREPNVQEKLYEELKNFTNDNDRKMVKFEDLNKLQYLQAVVKETMRMKPIAPLAIPHKACRETSLMGRKVNQGTRVMVNIYALHHNQNVWKEPYKFNPERFLQKNQDGVDGKAMEQSLLPFSAGMRICAGMELGKLQFSFALANLVNAFKWSCVSDGVFPDMSDQLGFVLLMKTPLEAGIVPRM
# System: scoulerine
# Test: CYP719 substrate affinity test on scoulerine in GC1333 (integrated PsCPR): Ring A / Ring B closure
# Format: cell-based, Saccharomyces cerevisiae
# Conditions: single CYP719 with PsCPR, 16 hours
# Description: To broadly identify CYP719 activities on BIAs, a substrate affinity test was performed with the protoberberine BIA scoulerine. CYP719s have been described to form methylenedioxy bridges on BIAs from an alcohol group and a methyl group on adjacent carbons. Two different rings can be made on scoulerine, which can be called “Ring A” and “Ring B”, with the BIA products being called “nandinine” and “cheilanthifoline”, respectively (see FIG. 19). CYP719-catalyzed formation of both Ring A and Ring B of scoulerine (“Ring A-closing activity” and “Ring B-closing activity”) has been identified and published. Certain CYP719 enzymes included in the affinity tests have published ring A and Ring B activities.
# Plasmids harboring CYP719s were transformed into either GC1333 containing an integrated PsCPR (FIG. 10A) or GC1316 containing an integrated PsCPR and an integrated PsCFS (FIG. 10B). Strain GC1333, harboring PsCPR integrated into the chromosome, was transformed with pBOT plasmids, with GFP removed, harboring individual CYP719s (CYP719 EX41-105). (See Tables 7-8 below presenting the nature and activity of these CYP719s).
# The resulting CYP719-harboring strains (strains SF41-105) were supplemented with scoulerine. After 16 hours, BIAs were extracted and the molar ratio of scoulerine to downstream BIAs was calculated (FIG. 10A).
Molecule,conversion of scoulerine to the Ring B product cheilanthifoline,conversion of scoulerine to the Ring A product nandinine (Ring A closure)
B1,over 95%,–
B2,over 95%,–
B3,over 95%,–
B4,over 95%,–
B5,over 95%,–
B6,over 95%,–
B7,over 95%,–
B8,over 95%,–
B9,–,> 95%

# Same assay, conditions: single CYP719 with PsCPR, 16 hours; listed as PsCFS
row,Molecule,conversion of scoulerine to the Ring B product cheilanthifoline
1,B7,> 98%
